# Test results from PubChem BioAssay AID2685 (National Center for Advancing Translational Sciences (NCATS), 2010).
# The list shows a part of the results. Shown are side measurements of this screen, not its main read-out; they come without a call. The list favours compounds with an active or inconclusive main result. Potencies come from curve fits of mixed quality, noted in brackets.
# Test: qHTS Assay for Lipid Storage Modulators in Drosophila S3 Cells;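 as to cell number change: cells counted by Cell Tracker Red CMTPX staining in the red channel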
# Details: BODIPY lipid droplet fluorescence, 18-24 h; for cell number change: measured here: cell count max response, cells fed with added oleic acid
# Excerpt: NIH Molecular Libraries Probe Production Centers Network [MLPCN] NIH Chemical Genomics Center [NCGC] MLPCN Grant: 1 R03 MH085686-01 Assay Submitter (PI): Beller, Mathias; Max-Planck-Institut fur Biophysikalische Chemie NCGC Assay Overview: Storing lipids as a reservoir for energy or the anabolism of elementary metabolites is a common feature of probably all cells and is conserved from bacteria to humans. The universal cellular lipid storage organelle is the so-called lipid storage droplet (LD). Although ubiquitous, LDs share a simple structure composed of a hydrophobic core that harbors the storage lipids, which is shielded by a droplet-specific phospholipid monolayer to which proteins are attached. The current model of LD biogenesis involves an incorporation of the lipid core into the membrane leaflets of the endoplasmic reticulum (ER) followed by a subsequent budding-like maturation of a LD, which ultimately pinches off. Once released, LD volume can increase by localized lipogenesis or fusion of existing droplet. Storage lipids are re-mobilized enzymatically by lipase activity. Lipase regulation in the adipocyte is heavily studied and involves multiple components including catecholamine signaling, the LD-associated proteins Perilipin and comparative gene identification (CGI-58) and at least two lipases named hormone sensitive lipase (HSL) and adipocyte triglyceride lipase (ATGL). LD regulation outside of the adipocyte is poorly understood and only few components are known. However, there is an urgent need to learn more about ectopic fat depots as mislocalized storage of lipids, for example in the liver or muscle, is an eminent health problem associated with insulin resistance or the metabolic syndrome. We developed a laser-scanning cytometer assay to enable 1,536-well screening and combined the results of the small molecules screen with an RNAi database based on lipid storage.
# Triacsin C (Sigma-Aldrich T-4540), an inhibitor of long-chain fatty acyl CoA synthetase that blocks synthesis of triglycerides, was used as a positive control for lipid under-storage. A total of 23 nL of compound solution of different concentrations were transferred to the assay plates using a Kalypsys pin tool equipped with a 1,536-pin array containing 10-nL slotted pins (FP1S10, 0.457-mm diameter, 50.8 mm long; V&P Scientific). One microliter of oleic acid (400 uM) was added, and the plate was lidded with stainless steel rubber gasket lined lids containing pinholes. […] Fluorescence was detected by excitation of the fluorophores with a 488-nm laser on an Acumen Explorer (TTP Lab Tech). The total intensity in channel 2 (500-530 nm) reflected lipid droplet accumulation. Cells were detected using channel 3 (575-640 nm) with 5-um width and 100-um depth filters. The ratio of the number of objects in PMT channel 2 over the number of objects in PMT channel 3 was also calculated. Percent activity was computed relative to an internal control (100% inhibited lipid droplet deposition due to the presence of 20 uM Triacsin C), which was added to 32 wells/plate.
# [1] = measured here: lipid fluorescence (Fed channel) AC50, cells fed with added oleic acid
# [2] = measured here: cell number channel AC50, cells fed with added oleic acid
compound,measurement,setting,value
O=C1c2ccccc2C(Nc2ccccc2)N1c1cccnc1 (centres undefined),AC50,[1],"6.51 µM [falling, single point]"
Cc1nc2ccc(S(=O)(=O)NCC(=O)NCCc3ccc(Cl)cc3)cc2s1,cell number change,,41.1%
same,AC50,[2],"16.4 µM [rising, single point]"
same,AC50,[1],"29.1 µM [rising, single point]"
CN(C(=O)CSc1nnc(-c2c[nH]c3ccccc23)o1)C1CCS(=O)(=O)C1 (centres undefined),cell number change,,-86.6%
same,AC50,[2],"29.1 µM [falling, partial curve]"
Cc1sc(NC(=O)C2CSC3(C)CCC(=O)N23)nc1-c1ccccc1 (centres undefined),cell number change,,-29.7%
same,AC50,[2],"2.59 µM [falling, full curve, poor fit]"
same,AC50,[1],"29.1 µM [falling, single point]"
COc1ccc(-n2c(=O)c3ccccc3n(CC(=O)NC3CCCCC3)c2=O)cc1,cell number change,,64.6%
same,AC50,[2],"9.2 µM [rising, partial curve]"
COC(=O)c1ccccc1NC(=O)c1cc(-c2ccc(C)cc2)on1,cell number change,,2.65%
CCCC(=O)Nc1ccccc1N1CCN(C(=O)c2ccccc2)CC1,cell number change,,-5.64%
same,AC50,[1],"0.731 µM [rising, single point]"
COc1cc(CCC(=O)OCC(=O)NC2CCCC(C)C2C)cc(OC)c1OC (centres undefined),cell number change,,-33.1%
C=CC(=O)NCC1OCCc2ccccc21 (centres undefined),cell number change,,9.03%
same,AC50,[1],"13 µM [rising, single point]"
CCn1cnc2cc([N+](=O)[O-])ccc21,cell number change,,9.05%
Cc1ccc(OCCn2c3ccccc3n3nc(C)c(=O)nc23)cc1,cell number change,,-5.1%
same,AC50,[1],"0.461 µM [falling, partial curve, poor fit]"
CN(CC(=O)O)S(=O)(=O)c1ccc2c(c1)n(C)c(=O)c(=O)n2C,cell number change,,6.91%
CC1Oc2ccccc2N(Cc2ccccc2F)C1=O (centres undefined),cell number change,,-11.6%
Clc1ccc(CCNc2ncnc3nc[nH]c23)cc1,cell number change,,-30.7%
same,AC50,[2],"16.4 µM [falling, single point]"
same,AC50,[1],"16.4 µM [falling, single point]"
CCn1c(C)cc(C(=O)CN2C(=O)c3ccccc3S2(=O)=O)c1C,cell number change,,5.1%
same,AC50,[1],"4.11 µM [rising, single point]"
CCOc1ccc(-c2c(C(=O)N/N=C/c3ccc(O)cc3)nnn2-c2nonc2N)cc1,cell number change,,-5.02%
O=C(NC(=S)N1CCc2ccccc21)C1CCC1,cell number change,,-2.44%
COc1ccc(N2CCCCn3c2nc2c3c(=O)[nH]c(=O)n2C)cc1,cell number change,,22.3%
same,AC50,[1],"23.1 µM [rising, single point]"
O=C(NC1CCSc2ccccc21)c1ccccc1Br (centres undefined),cell number change,,26.5%
same,AC50,[2],"1.84 µM [rising, full curve, poor fit]"
same,AC50,[1],"0.58 µM [rising, single point]"
Cc1ccc2c(CSc3nnc(C4CC4)n3N)cc(=O)oc2c1C,cell number change,,8.5%
same,AC50,[2],"0.00517 µM [rising, full curve, poor fit]"
Cc1ccc(NC(=O)CNS(=O)(=O)c2ccc(F)cc2)cc1C,cell number change,,80.6%
same,AC50,[2],"6.51 µM [falling, single point]"
same,AC50,[1],"29.1 µM [rising, single point]"
CCOC(=O)c1cc(C(=O)OCC)c2cc(Br)ccc2n1,cell number change,,-24.2%
same,AC50,[1],"3.66 µM [falling, single point]"
N#Cc1c(NC(=O)C2CC(c3c(F)cccc3Cl)=NO2)sc2c1CCC2 (centres undefined),cell number change,,5.78%
same,AC50,[1],"0.651 µM [rising, partial curve]"
Cc1sc2ncn(CC(=O)N3CCC(C(N)=O)CC3)c(=O)c2c1S(=O)(=O)N1CCOCC1,cell number change,,-3.85%
same,AC50,[1],"9.2 µM [falling, partial curve, poor fit]"
COc1cc2c(cc1OC)C(c1ccco1)CC(=O)N2 (centres undefined),AC50,[1],"0.231 µM [falling, full curve, poor fit]"
Cc1cccc(/C=C2/SC(=O)N(Cc3ccccc3)C2=O)n1,cell number change,,66.8%
same,AC50,[2],"8.2 µM [rising, partial curve]"
CCn1c(SCCOc2ccc(OC)cc2)nnc1C(CO)NC(=O)c1ccc(OC)cc1 (centres undefined),cell number change,,8.59%
same,AC50,[1],"16.4 µM [falling, single point]"
Cn1ccnc1SCC(=O)c1ccc(C#N)cc1,cell number change,,4.2%
same,AC50,[1],"29.1 µM [falling, single point]"
O=C(Nc1ccc(S(=O)(=O)N2CCCC2)cc1)C1CCN(S(=O)(=O)c2ccc(F)cc2)CC1,cell number change,,10%
Cc1ccc(Cn2nnc3c(=O)[nH]c(C4CCCN(C(=O)Nc5ccc(F)cc5)C4)nc32)cc1 (centres undefined),cell number change,,-10.3%
same,AC50,[1],"20.6 µM [rising, single point]"
CCC(Oc1ccccc1)C(=O)Nc1cc(C(F)(F)F)ccc1N1CCOCC1 (centres undefined),cell number change,,10.5%
Cc1ccc(CCNC(=O)C2CCCN(S(C)(=O)=O)C2)cc1 (centres undefined),cell number change,,-10.6%
same,AC50,[1],"0.00411 µM [falling, full curve, poor fit]"
COc1ccc(N/C=C/C(=O)c2ccc3c(c2)OCO3)cc1OC,cell number change,,34.5%
same,AC50,[2],"2.06 µM [rising, partial curve]"
same,AC50,[1],"0.184 µM [rising, full curve]"
CC(C)c1csc(CN2CCC(CO)(Cc3cccc(F)c3)CC2)n1,cell number change,,2.31%
same,AC50,[1],"18.4 µM [falling, single point]"
Cc1cccc(C(=O)OCC(=O)N2CCC(c3ccccc3)=N2)c1O,cell number change,,11.5%
same,AC50,[1],"1.16 µM [rising, full curve, poor fit]"
COc1ccc(N(C(=O)c2cnccn2)C(C(=O)NC2CCCCC2)c2ccccc2)cc1 (centres undefined),cell number change,,0.435%
same,AC50,[1],"6.51 µM [rising, partial curve, poor fit]"
COc1cccc(NC(=O)NCCC2=CCCCC2)c1,cell number change,,-9.49%
same,AC50,[2],"0.146 µM [falling, full curve, poor fit]"
same,AC50,[1],"0.103 µM [falling, full curve, poor fit]"
Cc1nc(SCC(=O)NCC2CCCO2)c2cc(-c3ccccc3)sc2n1 (centres undefined),cell number change,,-43.2%
same,AC50,[2],"16.4 µM [falling, single point]"
Cc1c(C(=O)Nc2ccc(Cl)cc2)c2ccccn2c1C(=O)c1ccc([N+](=O)[O-])cc1,cell number change,,22.9%
same,AC50,[1],"29.1 µM [falling, single point]"
CCc1ccc2[nH]c(=O)c(C(c3nnnn3Cc3ccc(OC)cc3)N3CCOCC3)cc2c1 (centres undefined),cell number change,,-5.17%
same,AC50,[1],"0.206 µM [rising, partial curve, poor fit]"
COc1ccccc1NS(=O)(=O)c1cc(NC(=O)c2ccc3ccccc3n2)ccc1Cl,cell number change,,5.25%
same,AC50,[1],"0.517 µM [rising, partial curve]"
CC(C)(C)NC(=O)CSc1nnc(NC(=O)CCc2ccccc2)s1,cell number change,,-6.74%
same,AC50,[1],"14.6 µM [falling, partial curve, poor fit]"
Cc1ccc(S(=O)(=O)CCc2nc3ccccc3s2)cc1C,AC50,[1],"6.51 µM [falling, single point]"
CCOc1cc(NC(=O)Nc2ccc(F)cc2)c(OCC)cc1NC(=O)CC,cell number change,,13.5%
same,AC50,[1],"0.103 µM [rising, full curve, poor fit]"
CCOc1cc(C(=O)Nc2cc(OC)cc(OC)c2)ccc1OCC(=O)N1CCOCC1,cell number change,,33%
Cc1onc(C(=O)Nc2ccccc2C(F)(F)F)c1[N+](=O)[O-],cell number change,,20.8%
same,AC50,[1],"29.1 µM [falling, single point]"
CCN(CC)c1ccc2cc(-c3nc4ccccc4n3C)c(=O)oc2c1,cell number change,,-32.9%
same,AC50,[2],"2.31 µM [falling, partial curve]"
same,AC50,[1],"2.31 µM [falling, partial curve]"
Brc1ccc(CSc2ccc3nnc(-c4ccccn4)n3n2)cc1,cell number change,,-22.1%
same,AC50,[1],"14.6 µM [falling, single point]"
Cc1cc(C(=O)COc2ccc(C#N)cc2)c(C)n1C1CC1,cell number change,,59.6%
same,AC50,[2],"16.4 µM [rising, partial curve]"
same,AC50,[1],"1.64 µM [rising, partial curve]"
Cc1c(C(=O)N2CCc3ccccc32)oc2ccccc12,cell number change,,12.7%
O=C(CSc1ncccn1)N1CCN(C(c2ccccc2)c2ccccc2)CC1,cell number change,,-9.28%
same,AC50,[2],"0.461 µM [rising, single point]"
Cc1ccccc1-n1c(SCC(=O)N/N=C/c2sccc2C)nc2ccccc2c1=O,cell number change,,-31.9%
same,AC50,[2],"29.1 µM [falling, single point]"
CCOC(=O)c1ccc(N2C(=O)CC(Sc3nc(O)c(CC)c(=O)[nH]3)C2=O)cc1 (centres undefined),cell number change,,3.7%
CS(=O)(=O)N1N=C(c2ccccc2)CC1c1ccc2c(c1)OCO2 (centres undefined),cell number change,,-11.1%
same,AC50,[1],"20.6 µM [falling, partial curve]"
COc1cc([N+](=O)[O-])cc(/C=C2/SC(=S)N(Cc3ccccc3)C2=O)c1O,cell number change,,-77.8%
same,AC50,[2],"2.91 µM [falling, full curve]"
same,AC50,[1],"1.84 µM [falling, partial curve]"
CC(CCN1CCN=C1N(C)C)c1ccccc1 (centres undefined),cell number change,,-9.73%
same,AC50,[1],"0.206 µM [rising, full curve, poor fit]"
CC(=O)Nc1ccc(NC(=O)c2sc3nc4n(c(=O)c3c2C)CCCCC4)cc1,cell number change,,35%
same,AC50,[2],"0.58 µM [rising, partial curve]"
same,AC50,[1],"0.0651 µM [falling, full curve, poor fit]"
CCOC(=O)N/N=C/c1cccc(Cl)c1Cl,cell number change,,26.6%
same,AC50,[1],"1.16 µM [rising, full curve]"
COc1cc(OC)cc(C(=O)Nc2ccccc2N2CCOCC2)c1,cell number change,,0.84%
same,AC50,[1],"0.206 µM [rising, full curve, poor fit]"
CCOc1ccc(NC(=O)Cc2ccc(NC3=NC4CS(=O)(=O)CC4S3)cc2)cc1 (centres undefined),cell number change,,30.8%
same,AC50,[1],"2.31 µM [rising, single point]"
NNC(=O)CN1C(c2ccc(Cl)cc2)=Nc2ccc(Br)cc2C1c1ccccc1 (centres undefined),cell number change,,-3.03%
COC(=O)c1ccc(NC(=O)c2cc(Cl)ccc2OC)cc1,cell number change,,28.6%
same,AC50,[2],"4.61 µM [rising, partial curve]"

# Shown with bars between the fields: entries from further up
compound | measurement | setting | value
Cc1nc2ccc(S(=O)(=O)NCC(=O)NCCc3ccc(Cl)cc3)cc2s1 | AC50 | [1] | 29.1 µM [rising, single point]
CN(C(=O)CSc1nnc(-c2c[nH]c3ccccc23)o1)C1CCS(=O)(=O)C1 (centres undefined) | cell number change |  | -86.6%
same | AC50 | [2] | 29.1 µM [falling, partial curve]
Cc1sc(NC(=O)C2CSC3(C)CCC(=O)N23)nc1-c1ccccc1 (centres undefined) | cell number change |  | -29.7%
same | AC50 | [2] | 2.59 µM [falling, full curve, poor fit]
same | AC50 | [1] | 29.1 µM [falling, single point]
COc1ccc(-n2c(=O)c3ccccc3n(CC(=O)NC3CCCCC3)c2=O)cc1 | cell number change |  | 64.6%
